Test systems include OR14L1 clone 1029; OR1A1 P285S clone 1531; OR1A1 R128H clone 1528; OR1A1 V233M clone 1287; OR1A1 V233M clone 1530; OR1A1 clone 1529; OR1A2 clone 1158; OR1C1 clone 1044; OR1D2 clone 1376; OR1D5 clone 1289; OR1D5 clone 1692; OR1E1 clone 1257; OR1E1 clone 1546; OR1E2 C27R clone 1447; OR1E2 clone 1517; OR1F1 F75S clone 1281; OR1F12 clone 1694; OR1G1 clone 1488; OR1J1 clone 1696.
Experiment in all cases: odorant receptor activation (CRE luciferase / Renilla) (fold of no-odor wells); higher = more activation
Settings in all cases: 100 µM

The test system of test [1] is OR1I1 P139R/Y252S clone 1468.

Where “and” joins values, the source holds several entries; their conditions need not be identical. Identical values can stand only once. The list shows a part of the results. Single wells; the ratio to wells without odorant was worked out here, and repeats agree poorly.

Take `COC(=O)c1ccccc1O` [methyl salicylate]: the odorant receptor activation in the test with OR14L1 clone 1029 was 1.27; in the test with OR1A1 P285S clone 1531, 0.976; in the test with OR1A1 R128H clone 1528, 1.19; in the test on OR1A1 V233M clone 1287 it was 2.57 and 1.34; in the test with OR1A1 V233M clone 1530, 1.38; in the test with OR1A1 clone 1529, 1.17. Besides, the odorant receptor activation was 0.906 with OR1A2 clone 1158; 1.04 in the test with OR1C1 clone 1044; 1.03 with OR1D2 clone 1376; 0.891 with OR1D5 clone 1289; 0.851 in the test with OR1D5 clone 1692; 0.709 in the test on OR1E1 clone 1257. The odorant receptor activation in the test on OR1E1 clone 1546 was 1; with OR1E2 C27R clone 1447, 1.34; with OR1E2 clone 1517, 1.16; with OR1F1 F75S clone 1281, 0.919; with OR1F12 clone 1694, 1.03; in the test on OR1G1 clone 1488 it was 0.944. Moreover, the figures for the odorant receptor activation (in test [1]; in the test with OR1J1 clone 1696) were 0.825 and 0.787, respectively.
As to `CCC1(O)C2(C)CCC(C2)C1(C)C` (stereo not given) [2-ethylfenchol], the odorant receptor activation with OR14L1 clone 1029 is 2.81; with OR1A1 P285S clone 1531 it was 0.947; in the test on OR1A1 R128H clone 1528 it was 1.14; in the test with OR1A1 V233M clone 1287 it was 0.968 and 2.15; in the test on OR1A1 V233M clone 1530, 1.23; in the test on OR1A1 clone 1529, 1.07. The odorant receptor activation in the test on OR1A2 clone 1158 is 0.908; in the test with OR1C1 clone 1044, 3.37; in the test on OR1D2 clone 1376 it was 0.444; with OR1D5 clone 1289 it was 0.98; with OR1D5 clone 1692 it was 0.9; with OR1E1 clone 1257, 1.49. For the same compound, the odorant receptor activation in the test on OR1E1 clone 1546 turned out to be 1.1; with OR1E2 C27R clone 1447, 0.861; with OR1E2 clone 1517, 1.16; in the test with OR1F1 F75S clone 1281, 0.7; in the test with OR1F12 clone 1694, 0.847; in the test with OR1G1 clone 1488, 1.22. The odorant receptor activation in test [1] is 1.47; in the test with OR1J1 clone 1696, 0.995.
`COc1cc(C=O)ccc1O` [vanillin]: the odorant receptor activation in the test with OR14L1 clone 1029 is 1.24; in the test on OR1A1 P285S clone 1531 it was 0.966; in the test on OR1A1 R128H clone 1528, 1; in the test on OR1A1 V233M clone 1287, 3.36 and 1.79; in the test on OR1A1 V233M clone 1530, 1.15; in the test on OR1A1 clone 1529 it was 0.994. Further, the odorant receptor activation was 0.841 in the test on OR1A2 clone 1158; 0.928 in the test on OR1C1 clone 1044; 0.911 in the test on OR1D2 clone 1376; 1.03 with OR1D5 clone 1289; 0.822 in the test with OR1D5 clone 1692; 0.925 with OR1E1 clone 1257. Further, the odorant receptor activation in the test with OR1E1 clone 1546 came to 0.83; in the test with OR1E2 C27R clone 1447, 0.838; in the test on OR1E2 clone 1517, 0.847; with OR1F1 F75S clone 1281, 1; with OR1F12 clone 1694, 0.594; in the test on OR1G1 clone 1488, 1.04. In addition, the odorant receptor activation in test [1] was determined as 1.2; with OR1J1 clone 1696, 0.796.
On to `C=CCc1ccc(OC)c(OC)c1` [eugenol methyl ether], for which the odorant receptor activation with OR14L1 clone 1029 is 1.75; with OR1A1 P285S clone 1531, 1.74; with OR1A1 R128H clone 1528, 1.88; in the test with OR1A1 V233M clone 1287, 5.84 and 2.38; in the test on OR1A1 V233M clone 1530 it was 1.94; in the test with OR1A1 clone 1529 it was 1.81. The odorant receptor activation in the test on OR1A2 clone 1158 was 1.67; in the test on OR1C1 clone 1044 it was 1.59; in the test on OR1D2 clone 1376, 1.57; in the test on OR1D5 clone 1289, 1.78; in the test with OR1D5 clone 1692, 0.889; in the test with OR1E1 clone 1257, 1.57. The odorant receptor activation in the test with OR1E1 clone 1546 was 1.52; with OR1E2 C27R clone 1447, 1.34; with OR1E2 clone 1517 it was 1.54; with OR1F1 F75S clone 1281 it was 1.28; in the test on OR1F12 clone 1694 it was 0.64; in the test on OR1G1 clone 1488 it was 1.08. The odorant receptor activation was 1.36 in test [1] and 0.699 with OR1J1 clone 1696.
As to `O=CCc1ccccc1` [phenyl acetaldehyde], the odorant receptor activation was 1.09 in the test with OR14L1 clone 1029; 0.788 in the test with OR1A1 P285S clone 1531; 1.3 in the test with OR1A1 R128H clone 1528; 0.641 and 1.61 in the test with OR1A1 V233M clone 1287; 1.47 with OR1A1 V233M clone 1530; 1.21 in the test on OR1A1 clone 1529. The odorant receptor activation was found to be 1.03 with OR1A2 clone 1158; 1.36 with OR1C1 clone 1044; 2.31 with OR1D2 clone 1376; 1.11 with OR1D5 clone 1289; 1.66 in the test on OR1D5 clone 1692; 1.61 in the test with OR1E1 clone 1257. Moreover, the odorant receptor activation in the test with OR1E1 clone 1546 turned out to be 1.19; with OR1E2 C27R clone 1447 it was 1.3; in the test with OR1E2 clone 1517, 0.996; with OR1F1 F75S clone 1281, 1.2; in the test on OR1F12 clone 1694 it was 1.93; with OR1G1 clone 1488 it was 1.47. The odorant receptor activation came out at 1.49 in test [1] and 1.69 in the test with OR1J1 clone 1696.
In the case of `O=C1CCCCCCCCCCCC(=O)OCCO1` [ethylene brassylate], the odorant receptor activation in the test on OR14L1 clone 1029 was 2.01; in the test on OR1A1 P285S clone 1531, 1.73; in the test on OR1A1 R128H clone 1528, 1.69; in the test with OR1A1 V233M clone 1287, 4.01 and 1.66; in the test on OR1A1 V233M clone 1530, 2.01; with OR1A1 clone 1529, 1.78. In addition, the odorant receptor activation in the test with OR1A2 clone 1158 was found to be 1.64; in the test with OR1C1 clone 1044 it was 1.67; in the test on OR1D2 clone 1376, 1.53; in the test with OR1D5 clone 1289 it was 1.8; in the test with OR1D5 clone 1692 it was 0.929; in the test with OR1E1 clone 1257, 1.58. Further, the odorant receptor activation turned out to be 1.22 in the test on OR1E1 clone 1546; 1.84 in the test with OR1E2 C27R clone 1447; 1.48 in the test on OR1E2 clone 1517; 1.5 in the test on OR1F1 F75S clone 1281; 0.675 in the test on OR1F12 clone 1694; 0.945 in the test on OR1G1 clone 1488. Moreover, the odorant receptor activation stood at 1.57 in test [1] and 0.874 in the test on OR1J1 clone 1696.

(Values after the odorant receptor screen of Mainland et al. (2015).)
